Article PMC11322866
Results are given in words; binding and its absence hold for the method and conditions named. In cells and extracts the contact can be indirect. Some entries that bind do so weakly or less than the wild type.

Amino acid sequences for entries named in this document (tags omitted).
UniProt Q15910: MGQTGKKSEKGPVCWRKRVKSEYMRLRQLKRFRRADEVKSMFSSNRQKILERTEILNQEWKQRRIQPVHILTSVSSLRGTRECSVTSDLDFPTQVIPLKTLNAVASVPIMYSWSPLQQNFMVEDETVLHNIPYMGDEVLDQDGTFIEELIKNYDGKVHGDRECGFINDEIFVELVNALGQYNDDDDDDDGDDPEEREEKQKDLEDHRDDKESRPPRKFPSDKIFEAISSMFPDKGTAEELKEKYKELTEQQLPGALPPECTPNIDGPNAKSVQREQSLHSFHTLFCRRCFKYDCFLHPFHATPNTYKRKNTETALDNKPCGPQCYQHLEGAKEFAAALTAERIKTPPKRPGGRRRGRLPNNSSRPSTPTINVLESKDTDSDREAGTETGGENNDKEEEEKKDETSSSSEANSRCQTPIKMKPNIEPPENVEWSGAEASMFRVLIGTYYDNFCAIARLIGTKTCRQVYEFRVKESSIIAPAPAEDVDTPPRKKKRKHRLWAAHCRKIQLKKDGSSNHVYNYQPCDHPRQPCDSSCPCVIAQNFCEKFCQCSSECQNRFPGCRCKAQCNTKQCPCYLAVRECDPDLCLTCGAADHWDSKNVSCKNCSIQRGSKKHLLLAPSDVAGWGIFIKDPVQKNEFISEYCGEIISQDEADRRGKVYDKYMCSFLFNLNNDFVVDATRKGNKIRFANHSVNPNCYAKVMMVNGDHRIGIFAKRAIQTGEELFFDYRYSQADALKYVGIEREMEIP

Target: enhancer of zeste homolog 2 (human (endogenous in RPMI-8226 and OCI-MY5)) (UniProt Q15910)
Test: co-IP; total protein lysates of RPMI-8226 and OCI-MY5 cells; immunoprecipitation with anti-RRM2 and anti-EZH2 antibodies and protein A/G agarose resin, washed with lysis buffer, western blot

B1: ribonucleotide reductase regulatory subunit M2 (protein, UniProt P31350 1-389)
chain: MLSLRVPLAPITDPQQLQLSPLKGLSLVDKENTPPALSGTRVLASKTARRIFQEPTEPKTKAAAPGVEDEPLLRENPRRFVIFPIEYHDIWQMYKKAEASFWTAEEVDLSKDIQHWESLKPEERYFISHVLAFFAASDGIVNENLVERFSQEVQITEARCFYGFQIAMENIHSEMYSLLIDTYIKDPKEREFLFNAIETMPCVKKKADWALRWIGDKEATYGERVVAFAAVEGIFFSGSFASIFWLKKRGLMPGLTFSNELISRDEGLHCDFACLMFKHLVHKPSEERVREIIINAVRIEQEFLTEALPVKLIGMNCTLMKQYIEFVADRLMLELGFSKVFRVENPFDFMENISLEGKTNFFEKRVGEYQRMGVMSSPTENSFTLDADF
binding: binds
